Values from PubChem BioAssay AID504784 (Drosophila RNAi Screening Center, 2011).
Purpose: 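Search for regulators of lipid droplet storage in oleate-fed fly cells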 (primary screen). Cell system: Drosophila Kc167 embryonic cells. Knock-down reagent: long dsRNA against Drosophila genes, about 250 ng dsRNA per well. Time to read-out: 4 days. Challenge: cells fed 400 µM oleic acid bound to BSA. Detection: 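Cells imaged and segmented; ratio of lipid droplet area to nuclear area, log-transformed, then normalised as a B-score over the screen; higher means more stored lipid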. Direction: droplet/nuclear area B-score: higher = more stored lipid (overstorage).
The deposit covers about 17,000 reagents; this is a random part of those with a known target gene and a result. 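Each column is one replicate's B-score; the combined score over replicates was not deposited, so single values may mislead.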 Names joined by + are all predicted targets of the reagent. Not all columns of the deposit are shown. No sequences are given here.

For Cks85A (Cyclin-dependent kinase subunit 85A) [DRSC16562], the entry reads droplet/nuclear area B-score, replicate 1 = 0.0478.
For CSN8 (COP9 signalosome subunit 8) [DRSC02257], the entry reads droplet/nuclear area B-score, replicate 1 = -3.15.
Against eco (Establishment of cohesion) [DRSC11006], the values are droplet/nuclear area B-score, replicate 1 = 0.738.
With knock-down of Rtnl1 (Reticulon-like1) [DRSC00851], the screen gave droplet/nuclear area B-score, replicate 1 = -0.534.
For Rtnl1 (Reticulon-like1) [DRSC02684], the values are droplet/nuclear area B-score, replicate 1 = 0.795.
For Rtnl1 (Reticulon-like1) [DRSC03122], the values are droplet/nuclear area B-score, replicate 1 = -0.493.
Rtnl1 (Reticulon-like1) [DRSC21698] gave droplet/nuclear area B-score, replicate 1 = 1.19.
Pect (Phosphoethanolamine cytidylyltransferase) [DRSC02867] showed droplet/nuclear area B-score, replicate 1 = 0.307.
With knock-down of Pect (Phosphoethanolamine cytidylyltransferase) [DRSC02868] the results were droplet/nuclear area B-score, replicate 1 = 0.0592.
Depletion of Ctr9 [DRSC08562] gave: droplet/nuclear area B-score, replicate 1 = -2.72.
With knock-down of ste24c + CG30461 [DRSC05639] the results were droplet/nuclear area B-score, replicate 1 = -0.0713.
Knock-down of ste24c + CG30461 [DRSC07316] resulted in: droplet/nuclear area B-score, replicate 1 = -0.828.
Knock-down of CG13362 [DRSC17897] resulted in: droplet/nuclear area B-score, replicate 1 = -0.264.
With knock-down of CG5758 [DRSC02889] the results were droplet/nuclear area B-score, replicate 1 = -0.139.
Depletion of CG5758 [DRSC02890] resulted in: droplet/nuclear area B-score, replicate 1 = 0.318.
fs(1)M3 (female sterile (1) M3) [DRSC18381] gave droplet/nuclear area B-score, replicate 1 = -0.223.

Laid out differently: 2 of the entries above.
Gene	amplicon	droplet/nuclear area B-score, replicate 1
CSN8 (COP9 signalosome subunit 8)	DRSC02257	-3.15
eco (Establishment of cohesion)	DRSC11006	0.738
